Assay [1] concerns the target T1, Neuronal cell adhesion molecule 2, isoform NCAM2.1 (mouse (endogenous in cerebral cortex)) (UniProt O35136).
T1 sequence: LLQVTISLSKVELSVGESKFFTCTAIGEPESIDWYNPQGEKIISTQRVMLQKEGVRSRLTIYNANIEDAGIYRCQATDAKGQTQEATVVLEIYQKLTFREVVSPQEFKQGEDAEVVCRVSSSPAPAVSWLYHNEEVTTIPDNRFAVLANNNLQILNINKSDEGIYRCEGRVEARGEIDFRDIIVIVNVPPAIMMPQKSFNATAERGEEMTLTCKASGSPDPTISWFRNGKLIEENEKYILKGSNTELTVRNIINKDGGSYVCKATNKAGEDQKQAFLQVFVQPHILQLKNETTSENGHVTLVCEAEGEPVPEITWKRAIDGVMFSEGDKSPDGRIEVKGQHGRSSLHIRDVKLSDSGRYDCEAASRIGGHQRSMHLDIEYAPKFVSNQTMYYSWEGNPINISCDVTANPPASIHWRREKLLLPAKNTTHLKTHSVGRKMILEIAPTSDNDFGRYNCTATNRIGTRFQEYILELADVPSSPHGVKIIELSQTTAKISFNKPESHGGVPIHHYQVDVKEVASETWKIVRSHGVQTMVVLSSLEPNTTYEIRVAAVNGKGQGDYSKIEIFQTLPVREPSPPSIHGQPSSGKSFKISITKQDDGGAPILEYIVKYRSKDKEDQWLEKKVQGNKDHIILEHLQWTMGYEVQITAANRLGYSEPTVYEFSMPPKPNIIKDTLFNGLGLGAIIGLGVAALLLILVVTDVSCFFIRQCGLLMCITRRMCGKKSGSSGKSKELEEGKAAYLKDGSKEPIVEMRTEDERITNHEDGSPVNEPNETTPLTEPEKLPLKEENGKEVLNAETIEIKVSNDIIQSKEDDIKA
As to the kind of experiment: affinity purification with mass spectrometry; NCAM2 precipitated from the membrane fraction (lysis buffer with 1% Triton X-100, 150 mM NaCl) of postnatal mouse cortex with magnetic beads conjugated with anti-NCAM2.1 (EB06991) or anti-NCAM2 (AF778), o/n at 4 °C; urea elution, trypsin, LC-MS/MS, FDR ≤ 0.01%; control: non-conjugated beads.

In assay [2] the target is T2, Neuronal cell adhesion molecule 2 (NCAM2) (mouse (endogenous in cerebral cortex)) (UniProt O35136).
T2 sequence: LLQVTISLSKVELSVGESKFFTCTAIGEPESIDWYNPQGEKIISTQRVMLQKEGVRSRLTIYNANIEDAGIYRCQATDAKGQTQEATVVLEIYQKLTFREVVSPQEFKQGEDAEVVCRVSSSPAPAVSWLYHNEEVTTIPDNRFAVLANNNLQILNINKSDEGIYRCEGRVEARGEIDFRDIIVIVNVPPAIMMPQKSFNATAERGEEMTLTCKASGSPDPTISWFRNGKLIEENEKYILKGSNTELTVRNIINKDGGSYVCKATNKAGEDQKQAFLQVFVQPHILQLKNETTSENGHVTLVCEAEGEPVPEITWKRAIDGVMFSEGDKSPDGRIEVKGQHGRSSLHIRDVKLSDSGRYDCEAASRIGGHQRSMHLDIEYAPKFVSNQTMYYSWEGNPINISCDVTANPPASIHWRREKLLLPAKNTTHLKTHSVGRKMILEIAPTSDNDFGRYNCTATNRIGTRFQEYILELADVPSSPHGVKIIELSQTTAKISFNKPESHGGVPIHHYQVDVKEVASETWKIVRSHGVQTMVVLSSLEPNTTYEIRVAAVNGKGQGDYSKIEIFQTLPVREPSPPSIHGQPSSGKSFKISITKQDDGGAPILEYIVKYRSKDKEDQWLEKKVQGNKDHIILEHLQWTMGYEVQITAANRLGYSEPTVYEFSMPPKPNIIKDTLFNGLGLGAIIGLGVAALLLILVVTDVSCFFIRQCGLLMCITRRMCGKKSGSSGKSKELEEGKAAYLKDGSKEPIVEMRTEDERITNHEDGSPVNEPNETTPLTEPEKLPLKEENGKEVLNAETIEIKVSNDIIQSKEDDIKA
Described as above.

For two molecules, binding results are on record in publication PMC8304497.

These are yes or no findings as the source states them, for the method shown. Binding seen in cells or lysates may run through a third protein. These calls come from enrichment with a bait or labelling near it, and not all partners need be listed.

B1: Reticulon-4 (protein, UniProt Q99P72 1-1162)
chain: MEDIDQSSLVSSSADSPPRPPPAFKYQFVTEPEDEEDEEDEEEEEDDEDLEELEVLERKPAAGLSAAPVPPAAAPLLDFSSDSVPPAPRGPLPAAPPTAPERQPSWERSPAASAPSLPPAAAVLPSKLPEDDEPPARPPAPAGASPLAEPAAPPSTPAAPKRRGSGSVDETLFALPAASEPVIPSSAEKIMDLKEQPGNTVSSGQEDFPSVLFETAASLPSLSPLSTVSFKEHGYLGNLSAVASTEGTIEETLNEASRELPERATNPFVNRESAEFSVLEYSEMGSSFNGSPKGESAMLVENTKEEVIVRSKDKEDLVCSAALHNPQESPATLTKVVKEDGVMSPEKTMDIFNEMKMSVVAPVREEYADFKPFEQAWEVKDTYEGSRDVLAARANMESKVDKKCFEDSLEQKGHGKDSESRNENASFPRTPELVKDGSRAYITCDSFSSATESTAANIFPVLEDHTSENKTDEKKIEERKAQIITEKTSPKTSNPFLVAIHDSEADYVTTDNLSKVTEAVVATMPEGLTPDLVQEACESELNEATGTKIAYETKVDLVQTSEAIQESIYPTAQLCPSFEEAEATPSPVLPDIVMEAPLNSLLPSTGASVAQPSASPLEVPSPVSYDGIKLEPENPPPYEEAMSVALKTSDSKEEIKEPESFNAAAQEAEAPYISIACDLIKETKLSTEPSPEFSNYSEIAKFEKSVPDHCELVDDSSPESEPVDLFSDDSIPEVPQTQEEAVMLMKESLTEVSETVTQHKHKERLSASPQEVGKPYLESFQPNLHITKDAASNEIPTLTKKETISLQMEEFNTAIYSNDDLLSSKEDKMKESETFSDSSPIEIIDEFPTFVSAKDDSPKEYTDLEVSNKSEIANVQSGANSLPCSELPCDLSFKNTYPKDEAHVSDEFSKSRSSVSKVPLLLPNVSALESQIEMGNIVKPKVLTKEAEEKLPSDTEKEDRSLTAVLSAELNKTSVVDLLYWRDIKKTGVVFGASLFLLLSLTVFSIVSVTAYIALALLSVTISFRIYKGVIQAIQKSDEGHPFRAYLESEVAISEELVQKYSNSALGHVNSTIKELRRLFLVDDLVDSLKFAVLMWVFTYVGALFNGLTLLILALISLFSIPVIYERHQAQIDHYLGLANKSVKDAMAKIQAKIPGLKRKAE
Turning to B1, the binding result in assay [1] is reported as “binds”.

B2: Alpha-internexin (protein, UniProt P46660 1-501)
chain: MSFGSEHYLCSASSYRKVFGDSSRLSARLSGPGGSGSFRSQSLSRSNVASTAACSSASSLGLGLAYRRLPASDGLDLSQAAARTNEYKIIRTNEKEQLQGLNDRFAVFIEKVHQLETQNRALEAELAALRQRHAEPSRVGELFQRELRELRAQLEEASSARAQALLERDGLAEEVQRLRARCEEESRGREGAERALKAQQRDVDGATLARLDLEKKVESLLDELAFVRQVHDEEVAELLATLQASSQAAAEVDVAVAKPDLTSALREIRAQYESLAAKNLQSAEEWYKSKFANLNEQAARSTEAIRASREEIHEYRRQLQARTIEIEGLRGANESLERQILELEERHSAEVAGYQDSIGQLESDLRNTKSEMARHLREYQDLLNVKMALDIEIAAYRKLLEGEETRFSTGGLSISGLNPLPNPSYLLPPRILSSTASKVSSAGLSLKKEEEEEEEEASKEVSKKTSKVGEGFEETLGEAVISTKKTGKSATEESTSSSQKM
For B2, the binding entry in assay [2] is given as “binds”.
